Results published in PMC7819943, “Rice protein-binding microarrays: a tool to detect cis-acting elements near promoter regions in rice”.
This is one part of the list.

Protein sequences, listed by entry. Tags and fused reporters are not part of them.
UniProt Q0JBA9, entry or part of it: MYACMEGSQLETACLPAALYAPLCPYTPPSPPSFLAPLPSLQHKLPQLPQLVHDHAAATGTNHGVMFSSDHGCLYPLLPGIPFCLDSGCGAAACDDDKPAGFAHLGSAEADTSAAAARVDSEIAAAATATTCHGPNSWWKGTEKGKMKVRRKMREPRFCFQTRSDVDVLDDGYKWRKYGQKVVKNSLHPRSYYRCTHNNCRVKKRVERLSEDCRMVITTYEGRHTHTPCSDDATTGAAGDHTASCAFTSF

These sequences were tested against OsWRKY34 (Oryza sativa, UniProt Q0JBA9 1-250) (assay: protein-binding microarray (RPBM); PBS, 2% BSA, 51.3 ng/ul salmon testes DNA, 50 uM zinc acetate, 200 nM TF, 25 C, 1 h; high values mean tight binding). Details: protein: recombinant; tags: N-terminal polyhistidine and DsRed monomer fusion (pET32a); label: CyDye5-dUTP incorporated in the synthesized complementary strand; 3' TTTTT single-stranded linker to array surface; dsDNA, one strand shown.
Outline: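 Transcription factors were each fused at the N-terminus to a polyhistidine tag plus DsRed and expressed in E. coli BL21-CodonPlus before Ni–NTA purification. Binding to a double-stranded custom Agilent array was carried out with 200 nM protein at 25 °C for 1 h in PBS, 2% BSA, salmon testes DNA and 50 µM zinc acetate. The binding signal is per-feature fluorescence intensity, in arbitrary units, on an Axon 4000B scanner.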

Sequence | binding signal
AGTACCTGGAATATAAAGTCGGGGTCGAAATTCAGTATCCCGGAGTCACCTAGTGCAG | 8730 fluorescence intensity (a.u.)
TCGATTGCCGGGGTTTCATATGGTGTGGGTTCAAGTGAAGCGGAGTCACCTAGTGCAG | 9460 fluorescence intensity (a.u.)
GTTAGCTTCTACATTTCTCGTTTCTGCTGAAAATAGTGGACGGAGTCACCTAGTGCAG | 9540 fluorescence intensity (a.u.)
TCTCTTTCCTTGCTTGTTTTTTTCTCAACTCGATCCATCTCGGAGTCACCTAGTGCAG | 8420 fluorescence intensity (a.u.)
TTTTCACCATTTCCTTTGCATTGCCTTTTGGTGCCCGTTCCGGAGTCACCTAGTGCAG | 13700 fluorescence intensity (a.u.)
CGCTTCACCCGCGCCATTTTCTCTTTTTTTTTAACCCTTCCGGAGTCACCTAGTGCAG | 8260 fluorescence intensity (a.u.)
CGCTCTGTACTTACATTCGTTCCTTTTTTATATGATATTCCGGAGTCACCTAGTGCAG | 9660 fluorescence intensity (a.u.)
TCTCTTTCCTGAGCTTGTACCCGTACGTCATTTGTGGAAACGGAGTCACCTAGTGCAG | 10800 fluorescence intensity (a.u.)
GTCACGCGCCTCGCCATCCACTTCGTCTCTCTCGTCTCGGCGGAGTCACCTAGTGCAG | 11700 fluorescence intensity (a.u.)
CACATGCTAAATCACCCGGATCAATCCCTACCGTCCATCCCGGAGTCACCTAGTGCAG | 10000 fluorescence intensity (a.u.)
GGAAACGTAACACCCAAGTCATGATCTGTTACATATTACACGGAGTCACCTAGTGCAG | 8192 fluorescence intensity (a.u.)
TATCACTCGGTTTTTATTTCTTACGTGGCAGGCCTGCAATCGGAGTCACCTAGTGCAG | 8730 fluorescence intensity (a.u.)
CCCCAACTCCCACGCCATCTCGCCACCACCAACCGATTCACGGAGTCACCTAGTGCAG | 8720 fluorescence intensity (a.u.)
TCGGGCATGATCACACAACTATCCTGACCCATAGTTGGCCCGGAGTCACCTAGTGCAG | 9490 fluorescence intensity (a.u.)
GGCCACTAGTGCATTTTATTCTTTTTTTCCATGTTGGGCTCGGAGTCACCTAGTGCAG | 8350 fluorescence intensity (a.u.)
GCCTGCATCAACCATATATGTTGTCCTTCACCAATAAAACCGGAGTCACCTAGTGCAG | 9820 fluorescence intensity (a.u.)
GGCGGCGGAGGAGGAGGAGGAGGAGGAGGAGGCAGCAATGCGGAGTCACCTAGTGCAG | 10500 fluorescence intensity (a.u.)
ATATCTACTCCCGGTTTCTGCTGGATTCCTTCCTTTTTCTCGGAGTCACCTAGTGCAG | 17500 fluorescence intensity (a.u.)
GCCGTTCGTTCCTCTTGCTGCTTCCGCCGCATCCATCCTGCGGAGTCACCTAGTGCAG | 10500 fluorescence intensity (a.u.)
GAAGCCCACCCAATTCGATTTTTTGGGCCGCCCCACCTTTCGGAGTCACCTAGTGCAG | 8790 fluorescence intensity (a.u.)
AGCTTGTCGTCGTCACCGGCCTCGCCGCTGCTTGGTCCATCGGAGTCACCTAGTGCAG | 8040 fluorescence intensity (a.u.)

Copied from the list.
TCTCTTTCCTGAGCTTGTACCCGTACGTCATTTGTGGAAACGGAGTCACCTAGTGCAG | binding signal: 10800 fluorescence intensity (a.u.)
TTTTCACCATTTCCTTTGCATTGCCTTTTGGTGCCCGTTCCGGAGTCACCTAGTGCAG | binding signal: 13700 fluorescence intensity (a.u.)
TATCACTCGGTTTTTATTTCTTACGTGGCAGGCCTGCAATCGGAGTCACCTAGTGCAG | binding signal: 8730 fluorescence intensity (a.u.)
GGAAACGTAACACCCAAGTCATGATCTGTTACATATTACACGGAGTCACCTAGTGCAG | binding signal: 8192 fluorescence intensity (a.u.)

Following part.

Sequence | binding signal
AGTGTTTTTTCTTTTTTGGTGTTTATCGTCCAGCCTTCATCGGAGTCACCTAGTGCAG | 8180 fluorescence intensity (a.u.)
CTGGAACCGTTGTTGCATCATCTCACCCACCTGCGTGCTCCGGAGTCACCTAGTGCAG | 9000 fluorescence intensity (a.u.)
CACCGCTCCTCATTCCGTCGTTCGTCGCTCGGTCTGTGCCCGGAGTCACCTAGTGCAG | 10300 fluorescence intensity (a.u.)
TTTTTCCACTATATATTGATAACCTAAGCAAATCCCCATCCGGAGTCACCTAGTGCAG | 8220 fluorescence intensity (a.u.)
GTGTTCACAGCTCAGAGCGCCATCCACCTCACCGTCCGCCCGGAGTCACCTAGTGCAG | 10300 fluorescence intensity (a.u.)
CTAGCCCTTTTGAACGGGTCTTTCTATATTGCATATCCTCCGGAGTCACCTAGTGCAG | 8600 fluorescence intensity (a.u.)
TTCTTGATGATTCGCATTTTCTCGTTTCTTTCGCGTGAACCGGAGTCACCTAGTGCAG | 8420 fluorescence intensity (a.u.)
CTTAGCTCGGATTTTCTTGATGGAGAATGTCAACCGTTCGCGGAGTCACCTAGTGCAG | 8180 fluorescence intensity (a.u.)
CCTTCTTCAACTGGTGGATGTTCAGCTCCTTCACCGGCGGCGGAGTCACCTAGTGCAG | 8280 fluorescence intensity (a.u.)
GTCTTCTCTTCTGCAGCTCTGCTTAGCTTCCCCTGATTATCGGAGTCACCTAGTGCAG | 9150 fluorescence intensity (a.u.)
CTTCATCGGAATCTGACACAATTTTCGACGTATTCTGTGACGGAGTCACCTAGTGCAG | 9060 fluorescence intensity (a.u.)
AGTACTCCAGTACCACTCTCTGAGCTCACTTGCTTACTTGCGGAGTCACCTAGTGCAG | 8860 fluorescence intensity (a.u.)
TACTTCACTTGTACTCGCTTAGTCTCAAAATATATTTATGCGGAGTCACCTAGTGCAG | 9060 fluorescence intensity (a.u.)
TCATTTTGACTTTTTTTAGTCAAACTCTTTTAATTTTAATCGGAGTCACCTAGTGCAG | 19600 fluorescence intensity (a.u.)
GGCCCCAATTCCAACACGCGTGCCCAGCAGCCGCAGATCTCGGAGTCACCTAGTGCAG | 8930 fluorescence intensity (a.u.)
CTCCATGGGTGCAGGGACCTGGCCATAGCGTTGGCGACTCCGGAGTCACCTAGTGCAG | 8060 fluorescence intensity (a.u.)
TATCATGATTTGGTATGTTCTAGCTTGTGTTATTTTTATTCGGAGTCACCTAGTGCAG | 11500 fluorescence intensity (a.u.)
ATCCAAATCTCGCCAAAATCTTATCCCTTTTCAAAATCTCCGGAGTCACCTAGTGCAG | 8270 fluorescence intensity (a.u.)
GCCGCCGCACGTGCGCCTCCACCTCCTCTCCATTGCCGCCCGGAGTCACCTAGTGCAG | 9260 fluorescence intensity (a.u.)
TGGTTGGTTCTTGTGTGTCCCTAAGCGTGAAAAAAATATCCGGAGTCACCTAGTGCAG | 12400 fluorescence intensity (a.u.)
TTTTCTTTCGTTTGCAATTTCAGCTTAGGGCTCTTTAGAACGGAGTCACCTAGTGCAG | 8260 fluorescence intensity (a.u.)

In another format: entries from further up.
Sequence,binding signal
CTTCATCGGAATCTGACACAATTTTCGACGTATTCTGTGACGGAGTCACCTAGTGCAG,9060 fluorescence intensity (a.u.)
AGTACTCCAGTACCACTCTCTGAGCTCACTTGCTTACTTGCGGAGTCACCTAGTGCAG,8860 fluorescence intensity (a.u.)

(listing goes on)

Sequence | binding signal
GGCGGCGGCGACGGCGATGGCGCGGGGTTGCTGGAGGGGACGGAGTCACCTAGTGCAG | 9140 fluorescence intensity (a.u.)
CAAGCTCGTTCAGCACCGTCGCCACCGCCGTCCCCAACCTCGGAGTCACCTAGTGCAG | 8680 fluorescence intensity (a.u.)
TTCCTTTGAGTCTATCTCTCTCATCAAATTCCTGCGTTTTCGGAGTCACCTAGTGCAG | 9700 fluorescence intensity (a.u.)
TACATGTTTGACCATTCGTCTTATTCAAAAATTTTATGCACGGAGTCACCTAGTGCAG | 8160 fluorescence intensity (a.u.)
TTGCTCGCGAGTGTGCTCACTGTCACATCACATCGATCATCGGAGTCACCTAGTGCAG | 10100 fluorescence intensity (a.u.)
ATTGGTCCATTAGCACGTGATTAATTAAGTATTTGCTATTCGGAGTCACCTAGTGCAG | 8760 fluorescence intensity (a.u.)
ACACGCCGACACGTGCCATCCCCATCCACCCACACGTGTCCGGAGTCACCTAGTGCAG | 9490 fluorescence intensity (a.u.)
CTCTCTACGGCTAGCTACTCCCATTTGTGGTCAACACCTCCGGAGTCACCTAGTGCAG | 10500 fluorescence intensity (a.u.)
AGCTCCACGACAACGGGCGCCTGCCTTTTTTCTGCCCATGCGGAGTCACCTAGTGCAG | 8760 fluorescence intensity (a.u.)
CCTCCCGGCAACCCGCGTCCTCGCTGCCTCCGCGCTGCTCCGGAGTCACCTAGTGCAG | 8140 fluorescence intensity (a.u.)
CCGGTGATCTCTCGCTTCGATTCGATTCTCTCGTGCAACTCGGAGTCACCTAGTGCAG | 9220 fluorescence intensity (a.u.)
AGTCACGAATCAAACAACCCCTTAAACTGTATTTGATTGTCGGAGTCACCTAGTGCAG | 8060 fluorescence intensity (a.u.)
TACGCTTTGGGGTGTGCCGTGTGCCTATATATATATTCAGCGGAGTCACCTAGTGCAG | 8160 fluorescence intensity (a.u.)
TGAACCTGTAAACACAAACTGATCTCTCTTTATTTTCAGTCGGAGTCACCTAGTGCAG | 10400 fluorescence intensity (a.u.)
CTCCCTGTCCCTATCATTCCCATTGCCCGATTTAGCGCTCCGGAGTCACCTAGTGCAG | 8780 fluorescence intensity (a.u.)
AGACGAATTGGACTCCTATACCATATATCTCCCGCGTGCTCGGAGTCACCTAGTGCAG | 8400 fluorescence intensity (a.u.)
ACCGTCCTCCTCGTCACCCACCAGCTCGACTTCCTCCGCACGGAGTCACCTAGTGCAG | 8200 fluorescence intensity (a.u.)
TTCCATTTCGTCTCCTTGGCCGCTGCGTTTCCCGGCTGCACGGAGTCACCTAGTGCAG | 10700 fluorescence intensity (a.u.)
TGTGTCTGTCCGTGGCGTAGTGTCTGTCATGTGGGGTACACGGAGTCACCTAGTGCAG | 10000 fluorescence intensity (a.u.)
GCGAGAGGGGACTGGGGAGGGGAGGGGCGGCGCTCGCTGGCGGAGTCACCTAGTGCAG | 12500 fluorescence intensity (a.u.)
CCCAACCACCACCACCACACACACGGGCCACACACACCGCCGGAGTCACCTAGTGCAG | 8790 fluorescence intensity (a.u.)

Sequence | binding signal
AGCCTTTTAACAGCAACTTCCATGCCATCTTCCAATGTTCCGGAGTCACCTAGTGCAG | 9300 fluorescence intensity (a.u.)
CACATCGGTGCACTCCTACTACTACTACCAGTCTATACCACGGAGTCACCTAGTGCAG | 8500 fluorescence intensity (a.u.)
CCGCTCTGCTCTGGTCTGCTCTGCTGCGAGGGTGGGTGTTCGGAGTCACCTAGTGCAG | 12700 fluorescence intensity (a.u.)
ATCGATTCTTCCCAGCTACGCGACTCTTCCTCGCTTTCTCCGGAGTCACCTAGTGCAG | 14000 fluorescence intensity (a.u.)
CTGGTTAACTTAGTTATTGTGTTTCGATCCAACGAGTTCCCGGAGTCACCTAGTGCAG | 9050 fluorescence intensity (a.u.)
AGGATCGAGGAATTCAGTTAAGCAAAAATATTTATACATGCGGAGTCACCTAGTGCAG | 47600 fluorescence intensity (a.u.)
ACTCTCTCATCATCTTTGGTCATTACGTTCAAAATTTTGTCGGAGTCACCTAGTGCAG | 10200 fluorescence intensity (a.u.)
AAACGGTTCGATCTATTCTCGTCTCCTCTCGTTTTCAGTCCGGAGTCACCTAGTGCAG | 12500 fluorescence intensity (a.u.)
AGGTGTGTATCGTACCGTGGCGGGCGCTTTCCTGGTGGGGCGGAGTCACCTAGTGCAG | 10200 fluorescence intensity (a.u.)
TTTGTCCATTCGGCCCATGTCCAACACGCCCCACGGCCCTCGGAGTCACCTAGTGCAG | 13500 fluorescence intensity (a.u.)
TCTTTTCATCCCCAACCAGTCCTTTTTTCTTCTGTTTATTCGGAGTCACCTAGTGCAG | 11700 fluorescence intensity (a.u.)
TTTCTGCTTCTGGTTTGGTGTGGATTGTGCAGGGGAGTTTCGGAGTCACCTAGTGCAG | 12000 fluorescence intensity (a.u.)
CCTATATGGCCCAACATGTCATCTCCCTACTCCCTCTTCTCGGAGTCACCTAGTGCAG | 8560 fluorescence intensity (a.u.)
TATGACGCCGTTGACTTATTGACTAACGTTTGACCATTCGCGGAGTCACCTAGTGCAG | 21500 fluorescence intensity (a.u.)
TCATCCTTTTGTCATTCAGAATTTCCCCATTTTTCTTGTTCGGAGTCACCTAGTGCAG | 8060 fluorescence intensity (a.u.)
CTACATTTTTTTTCAATTGACGCACACAATCTTTCTATATCGGAGTCACCTAGTGCAG | 8730 fluorescence intensity (a.u.)
GGTTAGGGTTAGATTTGTTCCAACTATTCGGTGAGCTCCTCGGAGTCACCTAGTGCAG | 10300 fluorescence intensity (a.u.)
ACTCACACACTTATATCACCGTTGGTAATGGTCACTCTATCGGAGTCACCTAGTGCAG | 9210 fluorescence intensity (a.u.)
CTTCTCTCTATACAATCTCCCAATGTTTCAGTCTTCAGATCGGAGTCACCTAGTGCAG | 8740 fluorescence intensity (a.u.)
CTCTCTCTCATCTCTCGTCGTTTTCTCTCTCCTCGATCGACGGAGTCACCTAGTGCAG | 14600 fluorescence intensity (a.u.)
AGGACAGAGGAGAGGGGAGGGGTAATATGTGTCCAATAATCGGAGTCACCTAGTGCAG | 10500 fluorescence intensity (a.u.)
